Reference: PMC8514439

By UniProt entry, the sequences of proteins in these tests, tags left out. Residues count along the entry.
UniProt Q86YC2: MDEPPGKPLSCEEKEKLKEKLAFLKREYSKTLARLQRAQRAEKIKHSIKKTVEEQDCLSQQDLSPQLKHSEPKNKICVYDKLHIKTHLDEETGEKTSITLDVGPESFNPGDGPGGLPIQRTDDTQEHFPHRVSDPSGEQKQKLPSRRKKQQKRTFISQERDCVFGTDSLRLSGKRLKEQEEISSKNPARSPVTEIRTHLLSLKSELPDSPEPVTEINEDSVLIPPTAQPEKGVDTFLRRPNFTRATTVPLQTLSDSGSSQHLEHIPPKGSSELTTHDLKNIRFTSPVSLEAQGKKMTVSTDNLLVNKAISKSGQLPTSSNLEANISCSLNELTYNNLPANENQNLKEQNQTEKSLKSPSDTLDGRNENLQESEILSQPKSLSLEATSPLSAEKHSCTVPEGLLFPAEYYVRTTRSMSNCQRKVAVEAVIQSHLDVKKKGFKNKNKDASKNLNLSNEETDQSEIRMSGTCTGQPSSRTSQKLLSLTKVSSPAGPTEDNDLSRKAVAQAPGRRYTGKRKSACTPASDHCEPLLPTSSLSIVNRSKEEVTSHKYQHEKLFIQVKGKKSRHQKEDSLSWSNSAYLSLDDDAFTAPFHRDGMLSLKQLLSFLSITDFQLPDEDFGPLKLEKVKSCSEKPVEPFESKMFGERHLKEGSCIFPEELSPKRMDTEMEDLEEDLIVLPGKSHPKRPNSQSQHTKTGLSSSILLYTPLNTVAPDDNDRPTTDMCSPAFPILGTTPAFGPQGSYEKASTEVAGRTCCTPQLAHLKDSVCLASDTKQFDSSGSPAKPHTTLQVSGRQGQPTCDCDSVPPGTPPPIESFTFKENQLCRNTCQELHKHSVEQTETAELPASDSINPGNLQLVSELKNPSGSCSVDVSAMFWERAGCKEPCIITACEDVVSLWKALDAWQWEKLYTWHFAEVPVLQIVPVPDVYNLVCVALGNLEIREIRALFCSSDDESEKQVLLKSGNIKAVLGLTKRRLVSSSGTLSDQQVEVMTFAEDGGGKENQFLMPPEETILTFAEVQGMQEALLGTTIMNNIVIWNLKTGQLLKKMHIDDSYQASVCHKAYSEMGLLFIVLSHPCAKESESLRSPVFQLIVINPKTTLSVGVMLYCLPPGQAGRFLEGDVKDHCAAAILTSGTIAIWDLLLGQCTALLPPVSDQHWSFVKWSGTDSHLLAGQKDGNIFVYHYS
UniProt Q14145: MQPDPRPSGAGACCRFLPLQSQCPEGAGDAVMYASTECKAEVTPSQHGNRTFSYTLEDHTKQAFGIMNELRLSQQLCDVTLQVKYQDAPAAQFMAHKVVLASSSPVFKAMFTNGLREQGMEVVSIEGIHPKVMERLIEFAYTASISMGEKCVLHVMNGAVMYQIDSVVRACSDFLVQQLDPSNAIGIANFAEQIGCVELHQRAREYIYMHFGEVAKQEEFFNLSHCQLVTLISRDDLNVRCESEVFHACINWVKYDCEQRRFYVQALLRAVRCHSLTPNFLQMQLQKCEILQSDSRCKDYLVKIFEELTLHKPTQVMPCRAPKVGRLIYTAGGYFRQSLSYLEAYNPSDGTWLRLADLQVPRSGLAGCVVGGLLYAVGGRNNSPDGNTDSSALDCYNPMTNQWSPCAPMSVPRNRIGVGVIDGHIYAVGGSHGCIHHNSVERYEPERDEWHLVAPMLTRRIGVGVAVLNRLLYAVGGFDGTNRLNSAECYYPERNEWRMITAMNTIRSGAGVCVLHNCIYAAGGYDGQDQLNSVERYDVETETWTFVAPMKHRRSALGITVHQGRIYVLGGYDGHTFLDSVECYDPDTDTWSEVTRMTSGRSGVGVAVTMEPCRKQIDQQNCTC
UniProt P02545, residues 1-646: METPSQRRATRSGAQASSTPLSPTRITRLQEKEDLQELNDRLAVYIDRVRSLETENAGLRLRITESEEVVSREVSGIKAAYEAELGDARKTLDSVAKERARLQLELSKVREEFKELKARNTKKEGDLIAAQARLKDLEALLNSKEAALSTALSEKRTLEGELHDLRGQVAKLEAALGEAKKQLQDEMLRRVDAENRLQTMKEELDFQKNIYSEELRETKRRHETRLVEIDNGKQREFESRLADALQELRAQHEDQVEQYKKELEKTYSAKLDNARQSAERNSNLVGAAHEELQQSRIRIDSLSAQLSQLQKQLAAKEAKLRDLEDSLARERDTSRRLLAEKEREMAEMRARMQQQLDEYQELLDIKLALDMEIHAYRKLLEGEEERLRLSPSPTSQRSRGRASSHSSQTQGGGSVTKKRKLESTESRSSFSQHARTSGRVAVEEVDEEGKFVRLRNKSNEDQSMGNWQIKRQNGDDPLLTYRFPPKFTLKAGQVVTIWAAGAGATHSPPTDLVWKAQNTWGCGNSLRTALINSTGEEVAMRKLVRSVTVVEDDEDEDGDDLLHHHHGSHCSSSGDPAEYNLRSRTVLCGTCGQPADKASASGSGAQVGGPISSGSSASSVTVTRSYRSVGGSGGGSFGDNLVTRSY
UniProt Q9UBU8: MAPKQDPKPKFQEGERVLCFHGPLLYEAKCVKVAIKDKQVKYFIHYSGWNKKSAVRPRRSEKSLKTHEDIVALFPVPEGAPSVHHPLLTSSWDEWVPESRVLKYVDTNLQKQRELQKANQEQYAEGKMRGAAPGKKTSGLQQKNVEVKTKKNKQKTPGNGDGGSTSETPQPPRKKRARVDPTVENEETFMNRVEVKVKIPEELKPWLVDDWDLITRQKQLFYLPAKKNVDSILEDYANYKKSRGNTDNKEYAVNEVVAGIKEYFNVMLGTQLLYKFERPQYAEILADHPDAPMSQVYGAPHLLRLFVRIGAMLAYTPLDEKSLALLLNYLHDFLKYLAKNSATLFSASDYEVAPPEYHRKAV
UniProt Q15014: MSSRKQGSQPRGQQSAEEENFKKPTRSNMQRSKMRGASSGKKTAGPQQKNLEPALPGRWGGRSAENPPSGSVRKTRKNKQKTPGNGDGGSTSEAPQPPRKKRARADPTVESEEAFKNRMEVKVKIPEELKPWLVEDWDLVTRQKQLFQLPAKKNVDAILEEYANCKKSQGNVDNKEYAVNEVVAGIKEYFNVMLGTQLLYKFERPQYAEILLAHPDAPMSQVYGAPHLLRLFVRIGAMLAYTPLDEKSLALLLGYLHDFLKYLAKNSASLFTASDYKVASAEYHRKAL

B1: HNRNPM (endogenous, HeLa S3) (protein, UniProt P52272 1-730)
chain: MAAGVEAAAEVAATEIKMEEESGAPGVPSGNGAPGPKGEGERPAQNEKRKEKNIKRGGNRFEPYANPTKRYRAFITNIPFDVKWQSLKDLVKEKVGEVTYVELLMDAEGKSRGCAVVEFKMEESMKKAAEVLNKHSLSGRPLKVKEDPDGEHARRAMQKVMATTGGMGMGPGGPGMITIPPSILNNPNIPNEIIHALQAGRLGSTVFVANLDYKVGWKKLKEVFSMAGVVVRADILEDKDGKSRGIGTVTFEQSIEAVQAISMFNGQLLFDRPMHVKMDERALPKGDFFPPERPQQLPHGLGGIGMGLGPGGQPIDANHLNKGIGMGNIGPAGMGMEGIGFGINKMGGMEGPFGGGMENMGRFGSGMNMGRINEILSNALKRGEIIAKQGGGGGGGSVPGIERMGPGIDRLGGAGMERMGAGLGHGMDRVGSEIERMGLVMDRMGSVERMGSGIERMGPLGLDHMASSIERMGQTMERIGSGVERMGAGMGFGLERMAAPIDRVGQTIERMGSGVERMGPAIERMGLSMERMVPAGMGAGLERMGPVMDRMATGLERMGANNLERMGLERMGANSLERMGLERMGANSLERMGPAMGPALGAGIERMGLAMGGGGGASFDRAIEMERGNFGGSFAGSFGGAGGHAPGVARKACQIFVRNLPFDFTWKMLKDKFNECGHVLYADIKMENGKSKGCGVVKFESPEVAERACRMMNGMKLSGREIDVRIDRNA

biological target: FLAG-HA-double-tagged PALB2 (UniProt Q86YC2); assay: affinity purification with mass spectrometry; tandem affinity purification (TAP) of FLAG-HA-PALB2 complex from stable HeLa S3 cells; whole purified material run ~1.5 cm into an SDS gel, trypsin digestion, LC-MS/MS; two independent experiments

binding, binds:
KEAP1 (endogenous, HeLa S3) (from UniProt Q14145 1-624)
LMNA (endogenous, HeLa S3) (from UniProt P02545 1-646)
MRG15 (endogenous, HeLa S3) (from UniProt Q9UBU8 1-362)
MRGX (endogenous, HeLa S3) (from UniProt Q15014 1-288)
B1

No constants are given. Whether binding was seen depends on the method and setting. In cells and extracts the contact can be indirect. Here binding means that the protein was enriched with, or labelled near, the bait; the list need not be complete.
